From patent US11554373B2 (priority 2016, dated 2023)
Where a name gives a salt, the structure may show the parent alone.

Columns and labels:
[1] = test system: primary human hepatocytes; assay: Urea production by hepatocytes; format: cell-based; conditions: 50 uM amiodarone; time course of the experiment
[2] = test system: primary human hepatocytes; conditions: 50 uM amiodarone; in the presence of THP-1 cells; day 7
[3] = test system: primary human hepatocytes; assay: Albumin production by hepatocytes (ELISA); format: cell-based; conditions: 50 uM amiodarone

With `CCCCc1oc2ccccc2c1C(=O)c1cc(I)c(OCCN(CC)CC)c(I)c1` [amiodarone, Amiodarone hydrochloride] the urea production [1] was “unaffected”, the liver viability [2] was “significantly reduces” and the albumin production ([3]; days 5 and 7) was “negatively affected”. For the same compound, the “albumin production effect with addition of THP-1 cells” value ([3]; with THP-1 cells) was “more pronounced”.
